Results from patent US11730712B2, “Functionalized long-chain hydrocarbon mono- and di-carboxylic acids and derivatives thereof, and their use for the prevention or treatment of disease” (ESPERVITA THERAPEUTICS, INC., priority 2021, dated 2023).

Test system: C57BL6/J mice
Assay: Indirect calorimetry (CLAMS) in fructose-fed C57BL6 mice
Type: in vivo, mouse
Conditions: 100 mg/kg oral gavage, 24 hours
Experimental: Materials and Methods. All experiments were carried out using the methods approved by the Animal Research Ethics Board at McMaster University, Canada (Steinberg Laboratory Animal Utilization Protocol #16-12-42). 8-Week-old male C57BL6/J mice were ordered from Jackson Laboratory, Bar Harbor, Me. and housed at the McMaster University Central Animal Facility. Animals were housed in the ventilated cages racks system and provided with ad libitum access to normal chow diet (Teklad 8640 22/5 rodent diet, procured from Envigo, Mississauga ON) and water supplemented with fructose (30% weight/volume, made fresh weekly) for at least 2-weeks before testing commenced. A 12-hour light/dark cycle and a temperature of 23±2° C. were maintained throughout the animal housing. Data were analyzed using one-way analyses of variance followed by a Tukey's multiple comparisons post hoc test where appropriate. All statistical analysis was carried out using GraphPad Prism 8 software. A p-value of less than or equal 0.05 was considered significant.
Experimental and Results. Respiratory Exchange Ratio (RER) and related metabolic parameters were measured using the Comprehensive Lab Animal Monitoring System (CLAMS, Columbus Instruments, Columbus, Ohio). Animals were placed in CLAMS and allowed ad libitum access to normal chow diet and water supplemented with fructose (30% weight/volume) for at least 24 hours before the experiment began. At 5:30 p.m. chow diet was removed and water containing 30% fructose was replaced with normal tap water. Animals were fasted overnight until food and 30% fructose water were made accessible the next day at 7:30 am. (14 hours total). Animals were allowed to feed ad libitum for ˜2 hours. RER was monitored and those animals with RER values >1 were administered either vehicle (1.5% Carboxymethyl cellulose and 0.2% Tween 20) alone or vehicle containing Compound I-1 or Compound I-32 at a dose of 100 mg/kg via oral gavage. Animals remained in the metabolic cages and RER, activity level, locomotor activity, and food intake were monitored for 24 hours. Metabolic parameters were calculated using Oxymax software included with Comprehensive Lab Animal Monitoring System (CLAMS). RER was calculated as the ratio of oxygen consumed (VO2) versus the amount of CO2 produced (VCO2) given by the following equation: RER=VCO2/VO2
Locomotor activity was calculated as the total number of beam breaks in each cage over a 24-hour period. The heat (calorific value, CV) was calculated by the following equation: Heat=CV×VO2 CV=3.815+1.232×RER

Compound	food intake compared to vehicle controls	total locomotor activity compared to vehicle treated mice
CC(C)(CCCCc1ccc(CCCCC(C)(C)C(=O)O)cc1)C(=O)O [Compound I-1, 6-[4-(5-carboxy-5-methylhexyl)-phenyl]-2,2-dimethylhexanoic acid]	tended to suppress food intake compared to vehicle controls, however, this was not significant	significantly lower
CC(C)(CCCCc1cccc(CCCCC(C)(C)C(=O)O)c1)C(=O)O [Compound I-32, 6-[3-(5-carboxy-5-methylhexyl)-phenyl]-2,2-dimethylhexanoic acid]	tended to suppress food intake compared to vehicle controls, however, this was not significant	significantly lower
